Results deposited as PubChem BioAssay AID504764 (Drosophila RNAi Screening Center, 2011).
The deposit covers about 22,000 reagents; this is an unselected part of those that have a named target and a result. In the full data, 403 (1.9%) got an active call. 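Unnormalised raw counts per well; ratio z-scores behind the hit calls and whether each hit raises or lowers signal are not deposited.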 A plus sign joins genes that one reagent is predicted to hit. The record does not give: the amount of reagent.

Test: 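Genome-wide screen for regulators of Notch-driven gene expression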 (primary screen)
Cells: Drosophila Kc167 cells
Reagent: long dsRNA against Drosophila genes
Time to read-out: about 5 days (4 days dsRNA, then 24 h after transfection)
Challenge: transfection of constitutively active membrane-tethered Notch lacking the extracellular domain, read 24 h later
Measurement: 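Light from a Notch-responsive E(spl)m3 luciferase reporter under active Notch, with control-promoter and no-Notch reporter wells to normalise; raw counts from paired wells a and b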
Scale: induced reporter light, run 1, well a and induced reporter light, run 1, well b: higher = more light from the Notch target reporter with active Notch; control promoter light, run 1, well a and control promoter light, run 1, well b: higher = more light from the viral control promoter (cell number, transfection, viability); uninduced reporter light, run 1, well a: higher = more light from the Notch target reporter without active Notch
Call rule: 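Wells with low control signal or poorly matching duplicates excluded; duplicates averaged; per source plate, z beyond ±2 for induced/control log2 ratio or beyond ±1.8 for induced/uninduced marks a hit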
Calls: active = modifier hit (raised or lowered Notch signal); inactive = not a hit

With Ns2 (Nucleostemin 2) [DRSC06993], what does the deposit list?
induced reporter light, run 1, well a: 1.06e5; induced reporter light, run 1, well b: 1.10e5; control promoter light, run 1, well a: 1.82e5; control promoter light, run 1, well b: 2.00e5; uninduced reporter light, run 1, well a: 9550; Outcome: inactive

What did the screen give for Ugt37A1 (UDP-glycosyltransferase family 37 member A1) [DRSC02114]?
induced reporter light, run 1, well a: 59560; induced reporter light, run 1, well b: 45065; control promoter light, run 1, well a: 54800; control promoter light, run 1, well b: 53940; uninduced reporter light, run 1, well a: 2942; Outcome: inactive

Which result is listed for CG32148 [DRSC09338]?
induced reporter light, run 1, well a: 2.13e5; induced reporter light, run 1, well b: 1.86e5; control promoter light, run 1, well a: 2.87e5; control promoter light, run 1, well b: 3.30e5; uninduced reporter light, run 1, well a: 23545; Outcome: inactive

Which result is listed for Trc8 (TRC8 ring finger protein) [DRSC15437]?
induced reporter light, run 1, well a: 1.95e5; induced reporter light, run 1, well b: 2.09e5; control promoter light, run 1, well a: 2.19e5; control promoter light, run 1, well b: 2.59e5; uninduced reporter light, run 1, well a: 13388; Outcome: inactive

What did the screen give for Oatp58Db (Organic anion transporting polypeptide 58Db) [DRSC04364]?
induced reporter light, run 1, well a: 49290; induced reporter light, run 1, well b: 35200; control promoter light, run 1, well a: 50465; control promoter light, run 1, well b: 67310; uninduced reporter light, run 1, well a: 2115; Outcome: inactive

How did the screen score daw (dawdle) [DRSC00479]?
induced reporter light, run 1, well a: 1.94e5; induced reporter light, run 1, well b: 2.19e5; control promoter light, run 1, well a: 2.13e5; control promoter light, run 1, well b: 2.33e5; uninduced reporter light, run 1, well a: 17295; Outcome: inactive

What did the screen give for E2f2 (E2F transcription factor 2) [DRSC03320]?
induced reporter light, run 1, well a: 1.64e5; induced reporter light, run 1, well b: 2.49e5; control promoter light, run 1, well a: 1.48e5; control promoter light, run 1, well b: 1.76e5; uninduced reporter light, run 1, well a: 14370; Outcome: inactive

What did the screen give for Stat92E [DRSC16870]?
induced reporter light, run 1, well a: 1.66e5; induced reporter light, run 1, well b: 1.68e5; control promoter light, run 1, well a: 2.07e5; control promoter light, run 1, well b: 1.85e5; uninduced reporter light, run 1, well a: 14928; Outcome: inactive

For CG15403 [DRSC00417], how do the results read?
induced reporter light, run 1, well a: 1.42e5; induced reporter light, run 1, well b: 1.41e5; control promoter light, run 1, well a: 1.68e5; control promoter light, run 1, well b: 1.81e5; uninduced reporter light, run 1, well a: 9415; Outcome: inactive

Which result is listed for ATPsynCF6L (ATP synthase, coupling factor 6-like) [DRSC08232]?
induced reporter light, run 1, well a: 1.78e5; induced reporter light, run 1, well b: 2.16e5; control promoter light, run 1, well a: 2.63e5; control promoter light, run 1, well b: 2.54e5; uninduced reporter light, run 1, well a: 12190; Outcome: inactive

With CG4080 [DRSC10398], what does the deposit list?
induced reporter light, run 1, well a: 1.41e5; induced reporter light, run 1, well b: 1.31e5; control promoter light, run 1, well a: 89620; control promoter light, run 1, well b: 41760; uninduced reporter light, run 1, well a: 10828; Outcome: inactive

For DUBAI + Tmem18 [DRSC05344], how do the results read?
induced reporter light, run 1, well a: 2.14e5; induced reporter light, run 1, well b: 1.86e5; control promoter light, run 1, well a: 2.73e5; control promoter light, run 1, well b: 2.07e5; uninduced reporter light, run 1, well a: 16485; Outcome: inactive

With CG10132 [DRSC02013], what does the deposit list?
induced reporter light, run 1, well a: 1.72e5; induced reporter light, run 1, well b: 2.19e5; control promoter light, run 1, well a: 1.68e5; control promoter light, run 1, well b: 1.71e5; uninduced reporter light, run 1, well a: 15575; Outcome: inactive

With CG31231 [DRSC13308], what does the deposit list?
induced reporter light, run 1, well a: 71165; induced reporter light, run 1, well b: 55015; control promoter light, run 1, well a: 1.05e5; control promoter light, run 1, well b: 86130; uninduced reporter light, run 1, well a: 9815; Outcome: inactive

For CG4271 [DRSC00649], what does the deposit list?
induced reporter light, run 1, well a: 1.34e5; induced reporter light, run 1, well b: 1.44e5; control promoter light, run 1, well a: 1.40e5; control promoter light, run 1, well b: 1.20e5; uninduced reporter light, run 1, well a: 10885; Outcome: inactive

For GluRIB + CG42509 (retired record) [DRSC10258], what was measured?
induced reporter light, run 1, well a: 2.32e5; induced reporter light, run 1, well b: 2.06e5; control promoter light, run 1, well a: 3.11e5; control promoter light, run 1, well b: 3.46e5; uninduced reporter light, run 1, well a: 13025; Outcome: inactive

What is on record for GluRIB + CG42509 (retired record) [DRSC11177]?
induced reporter light, run 1, well a: 2.86e5; induced reporter light, run 1, well b: 2.07e5; control promoter light, run 1, well a: 4.63e5; control promoter light, run 1, well b: 4.14e5; uninduced reporter light, run 1, well a: 12110; Outcome: inactive

With CG10862 [DRSC08170], what was measured?
induced reporter light, run 1, well a: 1.15e5; induced reporter light, run 1, well b: 1.11e5; control promoter light, run 1, well a: 1.88e5; control promoter light, run 1, well b: 1.36e5; uninduced reporter light, run 1, well a: 6990; Outcome: inactive

2 consecutive reagents from above:
daw (dawdle) [DRSC00479] | induced reporter light, run 1, well a: 1.94e5; induced reporter light, run 1, well b: 2.19e5; control promoter light, run 1, well a: 2.13e5; control promoter light, run 1, well b: 2.33e5; uninduced reporter light, run 1, well a: 17295; Outcome: inactive
E2f2 (E2F transcription factor 2) [DRSC03320] | induced reporter light, run 1, well a: 1.64e5; induced reporter light, run 1, well b: 2.49e5; control promoter light, run 1, well a: 1.48e5; control promoter light, run 1, well b: 1.76e5; uninduced reporter light, run 1, well a: 14370; Outcome: inactive
